Measurements from patent US20250228895A1, “COMPOUNDS TO INHIBIT YTHDF2, T HELPER CELLS LACKING EXPRESSION OF YTHDF2, AND METHODS TO TREAT CANCER” (City of Hope, priority 2024, published 2025).
No constants are given. Whether binding was seen depends on the method and setting. Binding seen in cells or lysates may run through a third protein. Some results given as binding are weak or reduced against the parent protein; the word gives no strength.

Molecular target: p62 (mouse) (UniProt Q64337)
Assay: co-immunoprecipitation from B16-OVA cell lysates with anti-YTHDF2 antibody, immunoblot for p62

- binding: binds
B1: YTHDF2 (protein, mouse, UniProt Q91YT7 2-579, looked up)
chain: SASSLLEQRPKGQGNKVQNGSVHQKDGLNDDDFEPYLSPQARPNNAYTAMSDSYLPSYYSPSIGFSYSLGEAAWSTGGDTAMPYLTSYGQLSNGEPHFLPDAMFGQPGALGSTPFLGQHGFNFFPSGIDFSAWGNNSSQGQSTQSSGYSSNYAYAPSSLGGAMIDGQSAFANETLNKAPGMNTIDQGMAALKLGSTEVASSVPKVVGSAVGSGSITSNIVASSSLPPATIAPPKPASWADIASKPAKQQPKLKTKNGIAGSSLPPPPIKHNMDIGTWDNKGPVAKAPSQALVQNIGQPTQGSPQPVGQQANNSPPVAQASVGQQTQPLPPPPPQPAQLSVQQQAAQPTRWVAPRNRGSGFGHNGVDGNGVGQSQAGSGSTPSEPHPVLEKLRSINNYNPKDFDWNLKHGRVFIIKSYSEDDIHRSIKYNIWCSTEHGNKRLDAAYRSMNGKGPVYLLFSVNGSGHFCGVAEMKSAVDYNTCAGVWSQDKWKGRFDVRWIFVKDVPNSQLRHIRLENNENKPVTNSRDTQEVPLEKAKQVLKIIASYKHTTSIFDDFSHYEKRQEEEESVKKERQGRGK
